Measured values as given in publication PMC11259696, “Small molecule MarR modulators potentiate metronidazole antibiotic activity in aerobic E. coli by inducing activation by the nitroreductase NfsA” (The Journal of Biological Chemistry, 2024).

Target: T1, MarR (His-tagged) (Escherichia coli BW25113) (UniProt P27245)
T1 sequence (looked up, limits assumed): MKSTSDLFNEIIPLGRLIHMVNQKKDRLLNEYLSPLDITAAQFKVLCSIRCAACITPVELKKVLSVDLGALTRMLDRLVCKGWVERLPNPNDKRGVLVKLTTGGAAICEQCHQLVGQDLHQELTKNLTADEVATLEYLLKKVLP
Assay: EMSA
Settings: 5 uM MarR, 100 nM DNA, no BDM76441; EMSA: His-MarR 5 uM preincubated with BDM76441 15 min 25 C, then 100 nM marO 15 min 25 C (10 ul); 6% DNA retardation gel, 0.5x TBE, 150 V 45 min; binding buffer; recombinant protein; protein details: His tag (pET15b, NdeI/XhoI); label: none (ethidium bromide stain); probe letters rebuilt from the primers and the genome

GTCAATTCATTCATTTGACTTATACTTGCCTGGGCAATATTATCCCCTGCAACTAATTACTTGCCAGGGCAACTAATGTGAAAAGTACCAGCGATCTGTTCAATGAAATTATTCCATTGGGTCGCTTAATCCATATGGTTAATCAGAAGAAAGATCGCCTGCTTAACGAGTATCTGTCTCCGCTGGATATTACCGCGGCACAGTTTAAGGTGCTCTGCTCTATCCGCTGCGCGGCGTGTATTACTCCGGTTGAACTGAAAAAGGTATTGTCGGTCGACCTGGGAGCACTGACCCGTATGCTGGATCGCCTGGTCTGTAAAGGCTGGGTGGAAAGGTTGCCGAACCCGAATGACAAGCGCGGCGTACTGGTAAAACTTACCACCGGCGGCGCGGCAATATGTGAACAATGCCATCAATTAGTTGGCCAGGACCTGCACCAAGAATTAACAAAAAACCTGACGGCGGACGAAGTGGCAACACTTGAGTATTTGCTTAAGA (double strand) [marO (marRAB promoter PCR fragment)]
binding result: binds

For at least one entry, the source does not settle the construct or the ends of the probe. Where a protein sequence is shown, tags need not be part of it.
